In PubChem BioAssay AID1671190 (National Center for Advancing Translational Sciences (NCATS), 2021):
“And” between values parts separate entries of the source, which are not always exact repeats. Equal values may be shown once. In all, about 580,000 compounds went through this assay and about 6,100 (1.1%) were called active. The shares of active, inactive and inconclusive entries below differ from those in the screen. Calls come from the whole dose curve; as a rule, active = well fitted inhibition curve with a large enough effect; inconclusive = small, poorly fitted or top-dose-only effect, or another doubt; inactive = no such curve, though single readings can be large or run the other way. Potencies beside an inconclusive call are fits to weak or partial responses and may not hold up. Where a structure was tested more than once in an assay, its records may differ in their call.

The chains behind the UniProt entries cited, without tags or fusion partners. Where a name states a change or a piece, a line headed by the entry shows the natural chain unless it says otherwise.
UniProt P18054: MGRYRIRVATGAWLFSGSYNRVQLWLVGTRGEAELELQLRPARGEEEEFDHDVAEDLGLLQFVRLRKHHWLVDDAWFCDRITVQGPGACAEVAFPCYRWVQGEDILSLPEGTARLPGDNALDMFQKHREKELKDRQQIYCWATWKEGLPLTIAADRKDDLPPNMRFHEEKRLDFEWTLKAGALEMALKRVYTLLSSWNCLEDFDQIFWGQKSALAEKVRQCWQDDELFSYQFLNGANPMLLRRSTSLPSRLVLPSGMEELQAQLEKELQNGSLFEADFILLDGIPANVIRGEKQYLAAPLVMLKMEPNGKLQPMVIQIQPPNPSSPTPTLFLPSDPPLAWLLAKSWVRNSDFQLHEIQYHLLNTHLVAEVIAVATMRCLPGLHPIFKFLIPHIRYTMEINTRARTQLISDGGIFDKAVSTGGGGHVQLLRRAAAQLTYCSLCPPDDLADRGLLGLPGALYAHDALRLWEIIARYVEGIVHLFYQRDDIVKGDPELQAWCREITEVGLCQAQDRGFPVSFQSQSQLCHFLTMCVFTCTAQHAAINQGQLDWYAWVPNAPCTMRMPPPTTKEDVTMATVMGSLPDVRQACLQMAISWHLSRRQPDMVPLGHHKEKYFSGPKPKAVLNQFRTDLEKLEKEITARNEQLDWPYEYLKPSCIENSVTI

Biological target: Polyunsaturated fatty acid lipoxygenase ALOX12 (Homo sapiens) (UniProt P18054)
Assay: Primary qHTS assay for inhibitors of human arachidonate 12S-lipoxygenase (ALOX12): Round 2
Settings: purified 12hLO, xylenol orange hydroperoxide absorbance; activity change, negative = inhibition: at 108 µM (top of the series) unless noted
Outline: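 Purified human 12hLO (150 nM final) in 25 mM Hepes, 0.01% Triton X-100, pH 7.0 was preincubated 15 min at room temperature with compound. Then 40 uM arachidonic acid was added, 30 min. Hydroperoxide was read by Fe-XO absorbance ratio 573/405 nm.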
% is set by controls: 0 for no effect and ±100 for the full control effect; potency is the fitted concentration of half-maximal effect.

SMILES | Potency | activity change, negative = inhibition
CC(C)CN1CCC(C(=O)NC(c2ccc(F)cc2)c2ccc3ccccc3n2)CC1 (centres undefined) | inconclusive: 44.7 µM [inhibitor, partial curve, poor fit] | –
CCOc1ccc(-c2nc(CNC(=O)Nc3cccc(C)c3C)c(C)o2)cc1 | inconclusive: 112 µM [inhibitor, single point] | –
COC(=O)C1=C(C)N(c2ccc(C(=O)OC)cc2)C(=O)C1 | inconclusive: 79.4 µM [inhibitor, partial curve, poor fit] | –
CCN(CC(=O)N1CCN(Cc2ccccc2)CC1)S(=O)(=O)c1ccccc1 | – | inactive: -7.28%
CCOC(=O)C1=C(Nc2ccc(Cl)cc2)OCC1=O | inconclusive: 126 µM [inhibitor, single point] | –
O=C(Nc1cccc(-c2nc3c(s2)CCCC3)c1)C1CC1 | inconclusive: 28.2 µM [inhibitor, partial curve, poor fit] | –
Cc1ccc(-c2cc(C(F)F)n3ncc(C(=O)Nc4cn(C)nc4C)c3n2)cc1 | – | inactive: -6.34%
COc1cccc(C(=O)N2CCN(C3CCC(c4ccccc4)CC3)CC2)c1OC (centres undefined) | inconclusive: 0.282 µM [inhibitor, full curve, poor fit] | –
CCCN1C(=O)Cc2cc(C(=O)NCc3ccc(F)cc3F)ccc21 | – | inactive: 18.9%
CCC(=O)Nc1ccc(CC)cc1-c1nc2ccccc2n(CC(=O)Nc2cccc(Cl)c2)c1=O | inconclusive: 35.5 µM [inhibitor, partial curve, poor fit] | –
CC(=O)N/N=C(/c1ccccc1)C(O)c1ccccc1 (centres undefined) | inconclusive: 7.08 µM [inhibitor, full curve, poor fit] | –
CCCCn1c(-c2cccc(F)c2)nc2c1c(=O)[nH]c(=O)n2CC(C)C | inconclusive: 100 µM [inhibitor, single point] | –
O=C(O)c1cc(OCc2ccccc2)cc(OCc2ccccc2)c1 | – | inactive: -9.13%
CCc1ccc2oc(C(=O)NCC(c3ccc(C)o3)N3CCCCC3)cc(=O)c2c1 (centres undefined) | inconclusive: 100 µM [inhibitor, partial curve, poor fit] | –
S=C(NCCCCc1ccccc1)Nc1cccc(Cl)c1Cl | active: 25.1 µM | –
Cn1c(=O)c(=O)n(C)c2cc(NC(=O)c3cccc(F)c3)c(Cl)cc21 | inconclusive: 100 µM [inhibitor, partial curve, poor fit] | –
CC(C)NC(=O)C1Cn2cccc2C(=O)N1C (centres undefined) | – | inactive: 4.73%
O=c1oc(-c2cccs2)nc2ccc(Br)cc12 | – | inactive: 18.6%
Cc1ccc(-c2nc3cnccn3c2Nc2c(C)cccc2C)o1 | inconclusive: 79.4 µM [inhibitor, partial curve, poor fit] | –
NC(=S)N/N=C/c1cc(-c2ccccc2)[nH]c1-c1ccccc1 | inconclusive: 44.7 µM [inhibitor, partial curve, poor fit] | –
O=C(O)/C(=C\c1ccc(C(F)(F)F)cc1)c1ccc(S(=O)(=O)N2CCCC2)s1 | inconclusive: 112 µM [inhibitor, single point] | –
COc1cc(/C=C/C(=O)O)cc(S(=O)(=O)NCCCC(=O)O)c1OC | inconclusive: 112 µM [inhibitor, single point] | –

Whole records from above. Values in the order: Potency | activity change, negative = inhibition
CCCN1C(=O)Cc2cc(C(=O)NCc3ccc(F)cc3F)ccc21 is listed as – | inactive: 18.9%
Cc1ccc(-c2nc3cnccn3c2Nc2c(C)cccc2C)o1 is listed as inconclusive: 79.4 µM [inhibitor, partial curve, poor fit] | –
S=C(NCCCCc1ccccc1)Nc1cccc(Cl)c1Cl is listed as active: 25.1 µM | –
COc1cc(/C=C/C(=O)O)cc(S(=O)(=O)NCCCC(=O)O)c1OC is listed as inconclusive: 112 µM [inhibitor, single point] | –

Continuation.

SMILES | Potency | activity change, negative = inhibition
CCOC(=O)c1c(C)[nH]c(C(=O)COC(=O)COc2ccccc2C=O)c1C | inconclusive: 17.8 µM [inhibitor, full curve, poor fit] | –
CCn1c2ccccc2c2cc(NC(=O)N3CCOCC3)ccc21 | inconclusive: 6.31 µM [inhibitor, full curve, poor fit] | –
Clc1cccc(CNCCCSc2ncccn2)c1Cl | inconclusive: 28.2 µM [inhibitor, partial curve, poor fit] | –
CCOc1ccc(N(CC(=O)NCCSCc2ccco2)S(=O)(=O)c2ccc(F)cc2)cc1 | inconclusive: 44.7 µM [inhibitor, partial curve, poor fit] | –
O=C(COC(=O)CCNS(=O)(=O)c1ccccc1)NC(=O)c1ccccc1 | inconclusive: 56.2 µM [inhibitor, partial curve, poor fit] | –
CN(C)CCCN(C(=O)c1ccc(Br)s1)c1nc2ccc(F)cc2s1 | inconclusive: 50.1 µM [inhibitor, partial curve, poor fit] | –
O=C(CCCSc1nc2ccccc2[nH]1)NC1=NCCS1 | inconclusive: 0.631 µM [inhibitor, full curve, poor fit] | –
O=C(NCc1cccnc1)c1ccc2c(c1)OCO2 | inconclusive: 50.1 µM [inhibitor, partial curve, poor fit] | –
Cc1c(Cc2ccccc2)c(=O)oc2cc(OCc3ccc(C(C)(C)C)cc3)ccc12 | inconclusive: 2.82 µM [inhibitor, full curve, poor fit] | –
COc1ccccc1Nc1nc2ccccc2nc1NS(=O)(=O)c1ccc(C)c(C)c1 | inconclusive: 112 µM [inhibitor, single point] | –
CC(=O)N1CCC(Cc2ccc(C(=O)NC3CCN(Cc4ccccc4)CC3)cc2)CC1 | – | inactive: 20.7%
N#C/C(=C\c1ccc(O)c(Br)c1)C(=O)NCc1ccccc1 | inconclusive: 79.4 µM [inhibitor, single point] | –
CC1=C[C@@H](CN2CCOCC2)[C@H](C(C)C)C[C@H]1Cc1nnc(-c2ccc(N(C)C)cc2)o1 | inconclusive: 79.4 µM [inhibitor, partial curve, poor fit] | –
Cc1cccc(OCCSc2nc(N)cc(N)n2)c1 | inconclusive: 112 µM [inhibitor, single point] | –
Cc1nc2ccc(NC(=O)N3CCSCC3)cc2s1 | – | inactive: 149% [at 57.4 µM]
O=C(/C=C/c1ccc(-c2cc(Cl)ccc2Cl)o1)c1ccc(Cl)cc1 | inconclusive: 17.8 µM [inhibitor, full curve, poor fit] | –
N#CC(C#N)=C(N)/C(C#N)=C/c1cc(O)c(O)c(O)c1 | active: 5.01 µM and inconclusive: 11.2 µM [inhibitor, full curve, poor fit] | –
COc1cc2c(cc1OC)C(COc1ccc3c(C)cc(=O)oc3c1)N(C(=O)C(C)C)CC2 (centres undefined) | inconclusive: 63.1 µM [inhibitor, partial curve, poor fit] | –
CC(C)(C)c1nnc(NC(=O)C2CCN(C(=O)c3ccco3)CC2)s1 | inconclusive: 5.62 µM [inhibitor, full curve, poor fit] | –
CCN(CC)c1ccc(-n2c(C)cc(C=O)c2C)cc1 | inconclusive: 100 µM [inhibitor, partial curve, poor fit] | –
CCS(=O)(=O)c1ncc(Cl)c(C(=O)Nc2ccc(C)cc2)n1 | – | inactive: 9.63%
CS(=O)(=O)Cc1cccc(C(=O)NC(Cc2ccccc2)c2ccccc2)c1 (centres undefined) | inconclusive: 44.7 µM [inhibitor, partial curve, poor fit] | –

SMILES | Potency | activity change, negative = inhibition
COc1ccc(/C=C(\NC(=O)c2ccc(OC)cc2)C(=O)OCCC(C)C)cc1 | inconclusive: 0.316 µM [inhibitor, full curve, poor fit] | –
O=C(COc1ccc(Br)cc1)NNC(=S)NC(=O)c1ccccc1[N+](=O)[O-] | inconclusive: 44.7 µM [inhibitor, partial curve, poor fit] | –
O=C(CSc1nc2nc[nH]c2c(=O)[nH]1)NC1CCCCC1 | inconclusive: 126 µM [inhibitor, single point] | –
Cc1[nH]n(-c2ccc([N+](=O)[O-])cc2)c(=O)c1C=NCC1CCCO1 (centres undefined) | – | inactive: -2.36%
CC(=O)Nc1ccc(C(=O)CCl)cc1 | – | inactive: -13.6%
O=C(Nc1c(C(=O)Nc2ccc(F)cc2)oc2ccccc12)c1cc2ccccc2o1 | inconclusive: 89.1 µM [inhibitor, partial curve, poor fit] | –
C[N+]1(CCCCSc2ccc(O)cc2)CCCCC1 | inconclusive: 44.7 µM [inhibitor, partial curve, poor fit] | –
Cn1ccc2cc3c(cc21)CCN3C(=O)Nc1cccnc1 | inconclusive: 14.1 µM [inhibitor, partial curve, poor fit] and active: 9.68 µM | –
Cc1cccc(-n2c(C)cc(/C=N/NC(=O)c3cccc([N+](=O)[O-])c3C)c2C)c1 | – | inactive: 3%
Cc1ccc(-c2cn3nc(-c4ccccc4)c(-c4ccccc4)nc3n2)cc1 | inconclusive: 89.1 µM [inhibitor, partial curve, poor fit] | –
Cc1ccc(NC(=O)c2c(F)cccc2Cl)cc1NS(C)(=O)=O | inconclusive: 112 µM [inhibitor, single point] | –
O=C(NCCc1cccs1)c1cccs1 | inconclusive: 100 µM [inhibitor, single point] | –
CC1CCCCN1CCNC(=O)c1ccc2c(c1)N(Cc1cccc(Cl)c1)C(=O)c1ccccc1S2=O (centres undefined) | – | inconclusive: -31.1% [inhibitor]
CCn1c(SCC(=O)c2sc3ccccc3c2C)nnc1C1CC1 | inconclusive: 39.8 µM [inhibitor, partial curve, poor fit] | –
COc1ccc(-c2nc(-c3c(C)noc3C)cc3c2cc(C)n3CCN(C)C)cn1 | inconclusive: 112 µM [inhibitor, partial curve, poor fit] | –
O=C1CCC(C(=O)NCc2cccnc2)N1 (centres undefined) | – | inactive: -20.8%
COc1ccc(-c2noc(C(=O)O)c2[C@@H](C)NS(=O)(=O)c2ccccc2)cc1 | – | inactive: 24.3% [at 176 µM]
Cc1ccc(C)c(CN2CCC(CNC(=O)Nc3ccc(Br)cc3F)CC2)c1 | inactive | –
O=C(Nc1ccc2c(c1)OCCO2)NC1CCN(C(=O)N2CC3CC(C2)[C@H]2CCCC(=O)N2C3)CC1 (some centres undefined) | – | inactive: 43.5%
O=C(O)C1=CC(/C=C/c2ccccc2)n2ncc(C(=O)Nc3ccc(F)cc3)c2N1 (centres undefined) | inconclusive: 3.98 µM [inhibitor, full curve, poor fit] | –

2 entries picked at random from those above:
SMILES | Potency | activity change, negative = inhibition
COc1ccc(-c2nc(-c3c(C)noc3C)cc3c2cc(C)n3CCN(C)C)cn1 | inconclusive: 112 µM [inhibitor, partial curve, poor fit] | –
O=C1CCC(C(=O)NCc2cccnc2)N1 (centres undefined) | – | inactive: -20.8%
